Assay results as given in publication PMC4533223, “Structures of CD6 and Its Ligand CD166 Give Insight into Their Interaction” (Structure(London, England:1993), 2015).
Results are given in words; binding and its absence hold for the method and conditions named. Some results given as binding are weak or reduced against the parent protein; the word gives no strength. Tags and fused reporters may be left off the sequences shown.

B1: soluble recombinant human CD6 SRCR domains 1-3, His-tagged (domain or fragment, UniProt P30203 18-364)
chain: HPSPAPPDQLNTSSAESELWEPGERLPVRLTNGSSSCSGTVEVRLEASWEPACGALWDSRAAEAVCRALGCGGAEAASQLAPPTPELPPPPAAGNTSVAANATLAGAPALLCSGAEWRLCEVVEHACRSDGRRARVTCAENRALRLVDGGGACAGRVEMLEHGEWGSVCDDTWDLEDAHVVCRQLGCGWAVQALPGLHFTPGRGPIHRDQVNCSGAEAYLWDCPGLPGQHYCGHKEDAGAVCSEHQSWRLTGGADRCEGQVEVHFRGVWNTVCDSEWYPSEAKVLCQSLGCGTAVERPKGLPHSLSGRMYYSCNGEELTLSNCSWRFNNSNLCSQSLAARVLCSASR
B2: soluble human CD166 domains 1-5 (CD166d1-5), 6 His tagged (domain or fragment, UniProt Q13740 28-527)
chain: WYTVNSAYGDTIIIPCRLDVPQNLMFGKWKYEKPDGSPVFIAFRSSTKKSVQYDDVPEYKDRLNLSENYTLSISNARISDEKRFVCMLVTEDNVFEAPTIVKVFKQPSKPEIVSKALFLETEQLKKLGDCISEDSYPDGNITWYRNGKVLHPLEGAVVIIFKKEMDPVTQLYTMTSTLEYKTTKADIQMPFTCSVTYYGPSGQKTIHSEQAVFDIYYPTEQVTIQVLPPKNAIKEGDNITLKCLGNGNPPPEEFLFYLPGQPEGIRSSNTYTLTDVRRNATGDYKCSLIDKKSMIASTAITVHYLDLSLNPSGEVTRQIGDALPVSCTISASRNATVVWMKDNIRLRSSPSFSSLHYQDAGNYVCETALQEVEGLKKRESLTLIVEGKPQIKMTKKTDPSGLSKTIICHVEGFPKPAIQWTITGSGSVINQTEESPYINGRYYSKIIISPEENVTLTCTAENQLERTVNSLNVSAISIPEHDEADEISDENREKVNDQAK

How the values were obtained:
[1] = target: soluble recombinant human CD6 SRCR domains 1-3, His-tagged (human) (UniProt P30203); assay: SEC-MALS; Superdex200 10/30 in 50 mM Tris.HCl, pH 7.5, 150 mM NaCl, 0.4 ml/min; CD6 alone 39 µM, CD166 VVC alone 28 µM, equimolar mixture 27 µM each; samples diluted approximately 10-fold on the column; both purified
[2] = target: T1, human CD166 extracellular region fused to rat CD4 domains 3 and 4 (CD166-CD4d3+4), wild type (human) (UniProt Q13740); assay: SPR; BIAcore 3000; CD166-CD4d3+4 chimeras (wild type and mutants) immobilised via OX68 antibody; soluble CD6 His injected at approximately the KD (0.1 µM); 25 °C, HBS-EP; equilibrium response as percent of wild type; only the binder purified
T1 sequence: B2 chain

[3] = target: T2, human CD6 domains 1-3 plus stalk fused to rat CD4 domains 3 and 4 (CD6 d1-3S, wild type, S351) (human) (UniProt P30203); assay: SPR; BIAcore 3000; CD6-CD4d3+4 chimeras (wild type and alanine mutants) immobilised via OX68 mAb; soluble CD166d1-5 injected at approximately the KD (0.1 µM); 25 °C, HBS-EP; equilibrium response as percent of wild type
T2 sequence (chain, biotin on the tag (immobilisation to streptavidin, Figure S1)): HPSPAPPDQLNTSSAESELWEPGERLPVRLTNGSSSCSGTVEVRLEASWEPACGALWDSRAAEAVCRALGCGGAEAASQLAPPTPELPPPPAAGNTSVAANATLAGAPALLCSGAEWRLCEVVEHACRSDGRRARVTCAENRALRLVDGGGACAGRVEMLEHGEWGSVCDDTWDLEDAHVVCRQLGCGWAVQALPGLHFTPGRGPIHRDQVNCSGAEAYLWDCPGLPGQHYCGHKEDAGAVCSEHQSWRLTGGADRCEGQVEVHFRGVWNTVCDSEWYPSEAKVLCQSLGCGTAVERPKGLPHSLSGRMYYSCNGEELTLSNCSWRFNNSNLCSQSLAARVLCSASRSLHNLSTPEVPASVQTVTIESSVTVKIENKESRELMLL

Binder | binding [1] | binding [2] | binding [3]
B1 | binds weakly | binds | 
B2 |  |  | binds
